The source of these data is patent publication US20120059162A1, “FUSED IMIDAZOLE DERIVATIVE HAVING TTK INHIBITORY ACTION” (Oncotherapy Science, Inc., priority 2009, published 2012).

Protein sequences, listed by entry. Tags and fused reporters are not part of them.
UniProt P33981, whole entry: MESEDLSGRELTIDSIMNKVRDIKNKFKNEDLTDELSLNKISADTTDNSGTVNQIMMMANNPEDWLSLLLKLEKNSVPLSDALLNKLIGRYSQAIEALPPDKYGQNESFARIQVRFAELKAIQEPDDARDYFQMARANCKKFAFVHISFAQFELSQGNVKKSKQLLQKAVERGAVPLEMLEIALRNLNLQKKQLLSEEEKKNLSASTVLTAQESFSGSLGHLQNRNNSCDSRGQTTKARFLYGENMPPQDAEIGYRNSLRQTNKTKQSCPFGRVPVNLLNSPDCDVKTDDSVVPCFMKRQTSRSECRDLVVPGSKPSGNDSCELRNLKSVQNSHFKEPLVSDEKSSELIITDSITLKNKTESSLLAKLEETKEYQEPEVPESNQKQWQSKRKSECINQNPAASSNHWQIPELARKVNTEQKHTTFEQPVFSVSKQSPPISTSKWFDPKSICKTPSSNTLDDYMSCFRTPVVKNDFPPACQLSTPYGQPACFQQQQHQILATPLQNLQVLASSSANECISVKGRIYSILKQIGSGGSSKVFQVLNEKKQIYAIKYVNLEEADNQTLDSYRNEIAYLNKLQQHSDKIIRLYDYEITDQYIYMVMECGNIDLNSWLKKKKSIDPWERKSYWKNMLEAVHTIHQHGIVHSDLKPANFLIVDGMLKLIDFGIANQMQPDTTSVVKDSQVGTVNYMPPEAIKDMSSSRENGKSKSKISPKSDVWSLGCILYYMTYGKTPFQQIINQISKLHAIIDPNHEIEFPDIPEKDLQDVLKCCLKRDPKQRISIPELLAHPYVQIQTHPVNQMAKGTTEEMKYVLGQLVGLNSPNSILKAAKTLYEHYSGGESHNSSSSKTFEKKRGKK

In this test the target is TTK (Homo sapiens, UniProt P33981). As to the kind of experiment: TTK assay: screening of TTK kinase activity suppressing action using p38 MAPK peptide. Format: biochemical. Conditions: read-out: TTK IC50; p38 MAPK peptide substrate.

One may read the IC50 as the concentration at which inhibition is half-maximal.

Molecules are shown by their SMILES. The match of structure and compound is tentative.

Consider `O=C(NC1CC1)c1ccc(-c2cnc3c(NCC4CCOCC4)cc(N4CCC(O)C4)nn23)cc1` (stereo not shown), for which the IC50 was 29.4 nM.
